Measured values: patent publication US11738082B2, “High concentration protein formulations with reduced viscosity” (Bhami's Research Laboratory, Pvt. Ltd., priority 2017, dated 2023)

These compounds were tested on Human Gamma Globulin (HGG), GLOBUCEL® (assay: Estimation of HGG concentration by absorbance at 280 nm in the presence of UV absorbing viscosity-reducing agents).
In the case of Cn1c(=O)c2c(ncn2C)n(C)c1=O [Caffeine, reference compound], the “interference in the estimation of protein/HGG concentration using a UV-Vis spectrophotometer” value is reported as “do not interfere”.
In the case of Cc1ncc(C[n+]2csc(CCO)c2C)c(N)n1 [Thiamine-HCl], the “interference in the estimation of protein/HGG concentration using a UV-Vis spectrophotometer” value is reported as “do not interfere”.
For O=C(O)c1cccnc1 [Nicotinic acid (acid form)], the “interference in the estimation of protein/HGG concentration using a UV-Vis spectrophotometer” value was “do not interfere”.
With N[C@@H](Cc1c[nH]c2ccccc12)C(=O)O [Tryptophan] the “interference in the estimation of protein/HGG concentration using a UV-Vis spectrophotometer” value was “do not interfere”.

Where a name gives a salt, the structure may show the parent alone.
